Data taken from PubChem BioAssay AID1487 (National Center for Advancing Translational Sciences (NCATS), 2009).
The list shows a part of the results. Shown are side measurements of this screen, not its main read-out; they come without a call. Most of these compounds were active or inconclusive in the main read-out, so they are no random draw. Words in brackets tell the shape of the fitted curve; partial curves, single points and poor fits give uncertain potencies.

Assay: qHTS Assay for Modulators of Lamin A Splicing
Conditions: HeLa LMNA splicing GFP/RFP minigene ratio, 48 h
Summary of the method: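 S3 HeLa stable clones carrying a lamin A-EGFP splicing minigene plus DsRed2 were seeded at 600 cells/well in Opti-MEM with 2% FBS, pin-dosed and incubated 48 h at 37°C. Acumen cytometry (488 nm) gave the GFP/RFP total-intensity ratio.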

[1] = measured here: GFP splicing reporter channel
[2] = measured here: RFP viability control channel

SMILES | AC50 [1] | AC50 [2]
O=C(CCCCCNC(=O)c1ccccc1Br)N=Nc1c(O)[nH]c2ccccc12 | 0.00501 µM [falling, full curve, poor fit] | 0.00501 µM [falling, full curve, poor fit]
Cc1cc(N2CCN(C)CC2)nc2ccc(NC(=O)Nc3cccc(Cl)c3)cc12 | 8.91 µM [falling, partial curve] | –
Cc1cccc(-n2ncc(C(=O)N3CCN(c4ccc(C)cc4C)CC3)c2C2CCN(C(=O)OC(C)(C)C)CC2)c1 | – | 0.0126 µM [rising, full curve, poor fit]
Cn1c(=O)c2c(nc(NCCOc3ccc(C(C)(C)C)cc3)n2C)n(C)c1=O | 5.62 µM [rising, partial curve] | 1.26 µM [rising, full curve]
OCCNCCCOc1cc(Cl)ccc1Cl | – | 0.355 µM [falling, full curve, poor fit]
Cc1oc2ncn(C)c(=O)c2c1C(=O)NCCCN1CCCCC1C (stereo not drawn) | – | 0.0501 µM [falling, full curve, poor fit]
COc1cccc(NS(=O)(=O)c2c(C)cc(C)cc2C)c1 | – | 35.5 µM [rising, single point]
Cc1ccc(-n2nnnc2-c2cnn(-c3ccc(F)cc3)c2C(F)(F)F)cc1 | 11.2 µM [rising, partial curve] | 15.8 µM [rising, partial curve]
CCn1c(Cc2cccs2)nnc1SCC(=O)Nc1ccc(OC)c(OC)c1 | – | 17.8 µM [rising, single point]
CC(C)COc1ccc(Cc2cnc(N)nc2N)cc1 | 35.5 µM [falling, single point] | 10 µM [falling, partial curve, poor fit]
CC(=O)c1cc(-c2ccc(F)cc2)n(CC(=O)NC2CCC(C)CC2)c1C (stereo not drawn) | – | 35.5 µM [falling, partial curve]
c1ccc2c(CCNc3ncnc4nc[nH]c34)cccc2c1 | – | 3.16 µM [rising, full curve]
CC(C)(CCl)C(=O)Nc1ccc(C(F)(F)F)cc1 | – | 35.5 µM [falling, partial curve, poor fit]
CCN(CC)C(=O)N1CCN(C)CC1 | 3.16 µM [rising, partial curve] | 11.2 µM [rising, partial curve, poor fit]
CCc1ccc(Nc2nnc(SCC(=O)Nc3cccc(S(=O)(=O)NC4=NCCCCC4)c3)s2)cc1 | – | 14.1 µM [rising, partial curve]
Cc1ccccc1NC(=O)Cn1cccc1 | – | 2.82 µM [falling, single point]
Nc1ccc(N=Nc2ccccc2)c(N)n1 | 1 µM [falling, full curve] | 1 µM [falling, full curve]
Cc1ccc(-n2c(CNC(=O)c3cccs3)nnc2SCC(=O)NO)cc1 | 7.08 µM [falling, partial curve, poor fit] | 6.31 µM [falling, partial curve, poor fit]
Cc1cc(C)n2nc(SCC(=O)N/N=C/c3cccc(Br)c3)nc2n1 | 15.8 µM [rising, single point] | –
Cc1ccc(N2CCN(C(=O)c3cnn(-c4ccc(F)cc4F)c3C3CCN(C(=O)OC(C)(C)C)CC3)CC2)c(C)c1 | – | 12.6 µM [rising, single point]
CCCS(=O)(=O)N1CCN(Cc2ccc([N+](=O)[O-])cc2)CC1 | – | 14.1 µM [rising, partial curve, poor fit]
O=[N+]([O-])c1ccc(Cl)c(CN2CCSCC2)c1 | – | 0.0224 µM [rising, full curve, poor fit]
CCCOc1ccc(C(=O)Nc2ccc(S(=O)(=O)Nc3cc(C)nc(C)n3)cc2)cc1 | – | 25.1 µM [falling, partial curve, poor fit]
CCOc1cc(/C=N/O)cc(Br)c1OCc1ccc(Cl)cc1 | 25.1 µM [falling, single point] | 35.5 µM [falling, single point]
CC1=C/C(=N\OS(=O)(=O)c2ccccc2)C(C(C)C)=CC1=O | 12.6 µM [falling, partial curve, poor fit] | 17.8 µM [falling, single point]
Cc1ccccc1-c1nn2c(-c3ccccc3)nnc2s1 | – | 14.1 µM [rising, single point]
O=C(NCc1ccccc1)c1ccc2c(=O)[nH]c3c(C(=O)NCC4CCCO4)sc(=S)n3c2c1 (stereo not drawn) | – | 0.891 µM [rising, partial curve, poor fit]

Structures listed so far with a halogen:
SMILES | AC50 [1] | AC50 [2]
O=C(CCCCCNC(=O)c1ccccc1Br)N=Nc1c(O)[nH]c2ccccc12 | 0.00501 µM [falling, full curve, poor fit] | 0.00501 µM [falling, full curve, poor fit]
Cc1cc(N2CCN(C)CC2)nc2ccc(NC(=O)Nc3cccc(Cl)c3)cc12 | 8.91 µM [falling, partial curve] | –
OCCNCCCOc1cc(Cl)ccc1Cl | – | 0.355 µM [falling, full curve, poor fit]
Cc1ccc(-n2nnnc2-c2cnn(-c3ccc(F)cc3)c2C(F)(F)F)cc1 | 11.2 µM [rising, partial curve] | 15.8 µM [rising, partial curve]
CC(=O)c1cc(-c2ccc(F)cc2)n(CC(=O)NC2CCC(C)CC2)c1C (stereo not drawn) | – | 35.5 µM [falling, partial curve]
CC(C)(CCl)C(=O)Nc1ccc(C(F)(F)F)cc1 | – | 35.5 µM [falling, partial curve, poor fit]
Cc1cc(C)n2nc(SCC(=O)N/N=C/c3cccc(Br)c3)nc2n1 | 15.8 µM [rising, single point] | –
Cc1ccc(N2CCN(C(=O)c3cnn(-c4ccc(F)cc4F)c3C3CCN(C(=O)OC(C)(C)C)CC3)CC2)c(C)c1 | – | 12.6 µM [rising, single point]
O=[N+]([O-])c1ccc(Cl)c(CN2CCSCC2)c1 | – | 0.0224 µM [rising, full curve, poor fit]
CCOc1cc(/C=N/O)cc(Br)c1OCc1ccc(Cl)cc1 | 25.1 µM [falling, single point] | 35.5 µM [falling, single point]

Continued:

SMILES | AC50 [1] | AC50 [2]
O=C(Nc1nc(-c2ccc(Cl)cc2Cl)cs1)c1ccc(OCC2CCCO2)cc1 (stereo not drawn) | 1.12 µM [rising, full curve, poor fit] | 1.78 µM [rising, full curve]
CC1CCCCN1C(C(=O)O)c1ccccc1 (stereo not drawn) | 35.5 µM [rising, single point] | –
O=C(NCCN1C(=O)S/C(=C\c2ccc(OC(F)F)cc2)C1=O)c1cnccn1 | – | 14.1 µM [rising, single point]
O=C(N/N=C/c1ccc(O)cc1)c1cc(-c2ccc3c(c2)OCO3)n[nH]1 | – | 22.4 µM [rising, single point]
O=C(OCC(=O)N1CCN(C(=O)c2ccco2)CC1)c1ccccc1OCc1ccc(Cl)cc1 | 35.5 µM [rising, single point] | 35.5 µM [rising, single point]
O=C(NCCc1ccccc1)C1CCN(Cc2cc3ccccc3n2Cc2cccc(Cl)c2)CC1 | 6.31 µM [falling, partial curve, poor fit] | –
COC(=O)CC1C(=O)NCCN1C(=S)Nc1cccc(C)c1 (stereo not drawn) | 0.2 µM [rising, single point] | 0.316 µM [rising, single point]
O=C(Nc1ccccc1)c1ccc(Br)c(S(=O)(=O)Nc2cccnc2)c1 | 5.62 µM [rising, single point] | –
COc1cccc(Nc2sc(C(=O)c3ccc(Cl)cc3)c(N)c2C(=O)NCc2ccc(C)cc2)c1 | – | 2.82 µM [falling, partial curve, poor fit]
COc1ccc(CCNC(=O)CN2CCN(c3cccc(C(F)(F)F)c3)CC2)cc1 | – | 35.5 µM [rising, single point]
OC(c1ccccc1)c1nccc2ccccc12 (stereo not drawn) | 3.98 µM [falling, full curve] | 5.62 µM [falling, partial curve]
CCOC(=O)C1=NN(c2ccc(Cl)cc2)C(c2ccccc2)CC1=O (stereo not drawn) | – | 7.94 µM [rising, partial curve, poor fit]
COc1ccc(C(NC(=O)c2cccc(F)c2)c2ccccc2)cc1 (stereo not drawn) | – | 35.5 µM [rising, single point]
CCC(OC(C)=O)c1cc2c(cc1[N+](=O)[O-])OCCO2 (stereo not drawn) | 0.00398 µM [falling, full curve, poor fit] | 0.00316 µM [falling, full curve, poor fit]
O=c1cc(CSc2ccc(Cl)cc2)nc(N2CCCCC2)[nH]1 | – | 15.8 µM [rising, partial curve]
Cc1nn2c(=O)cc(COC(=O)c3cccc(NC(=O)c4ccc(C(C)(C)C)cc4)c3)nc2s1 | – | 25.1 µM [rising, partial curve]
CC(=O)c1ccc(NC(=O)C(C)OC(=O)c2ccc(NS(=O)(=O)c3ccc(F)c(F)c3)cc2)cc1 (stereo not drawn) | 4.47 µM [rising, partial curve] | 15.8 µM [rising, partial curve, poor fit]
CC(=O)c1c(C)[nH]c(C(=O)OCC(=O)Nc2ccc(C)cc2[N+](=O)[O-])c1C | 0.891 µM [rising, full curve, poor fit] | 1.41 µM [rising, full curve]
CN(C1=C(N2CCOCC2)C(=O)c2ccccc2C1=O)c1ccccc1 | – | 17.8 µM [rising, partial curve, poor fit]
CC(C)(C)C(=O)Nc1nnc(CC(=O)NCc2ccccc2)s1 | 0.0891 µM [rising, full curve, poor fit] | 0.282 µM [rising, full curve, poor fit]
O=C(Cc1csc(-c2ccccc2)n1)NCc1ccccc1F | 12.6 µM [rising, partial curve] | 5.01 µM [rising, partial curve, poor fit]
C#CCOCCOCCOCCNc1nc(N2CCN(C(=O)[C@H](C(C)C)n3cc(CCO)nn3)CC2)nc(N2CCN(C(=O)[C@H]([C@@H](C)CC)n3cc(CCCN=C(N)N)nn3)CC2)n1 | – | 1 µM [falling, full curve, poor fit]
CNS(=O)(=O)c1ccc2nc(NC(=O)/C=C/c3ccco3)sc2c1 | – | 0.891 µM [falling, partial curve, poor fit]
O=c1[nH]c(CSc2nc3ccccc3o2)nc2c1cnn2-c1ccccc1 | 17.8 µM [rising, single point] | 11.2 µM [rising, partial curve, poor fit]
CN(C)S(=O)(=O)c1ccc(Oc2ccc(S(=O)(=O)N(C)C)cc2)cc1 | – | 10 µM [rising, partial curve, poor fit]
COc1ccc(NC(=O)NNc2cc(N3CCOCC3)nc(N3CCOCC3)n2)cc1 | 3.16 µM [falling, partial curve, poor fit] | –
Fc1cc(Br)ccc1NC(=S)Nc1ccccc1 | – | 31.6 µM [rising, single point]
